In the supplement of paper PMC4604168 (melanoma cell lines):
The list shows a part of the results. Single values are uncertain, as repeats are few or missing.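 The apoptosis fraction was the count of cleaved-PARP antibody-stained nuclei relative to all DNA-stained nuclei, imaged in 1,536-well plates. Screening doses were set so most cells survived, and baseline and induced cleaved-PARP levels vary greatly across cell lines.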

What was measured:
Assay in all cases: cleaved PARP positive nuclei fraction relative to DMSO control; melanoma cells; higher = more apoptosis
Details in all cases: library dose: low library concentration; 72 h
[1] = system: MZ2-MEL
[2] = system: MeWo
[3] = system: RPMI7951
[4] = system: RVH-421
[5] = system: SkMel28
[6] = system: SkMel2
[7] = system: SkMel30
[8] = system: SkMel5
[9] = system: UACC257
[10] = system: UACC62

SMILES	cleaved PARP positive nuclei fraction [1] [%]	cleaved PARP positive nuclei fraction [2] [%]	cleaved PARP positive nuclei fraction [3] [%]	cleaved PARP positive nuclei fraction [4] [%]	cleaved PARP positive nuclei fraction [5] [%]	cleaved PARP positive nuclei fraction [6] [%]	cleaved PARP positive nuclei fraction [7] [%]	cleaved PARP positive nuclei fraction [8] [%]	cleaved PARP positive nuclei fraction [9] [%]	cleaved PARP positive nuclei fraction [10] [%]
Cn1cc(C2=C(c3cn(C4CCN(Cc5ccccn5)CC4)c4ccccc34)C(=O)NC2=O)c2ccccc21 [Enzastaurin] + COc1ccc(-c2ccc3c(N4CCOCC4)nc(N4C[C@@H](C)O[C@@H](C)C4)nc3n2)cc1CO [KU0063794] (first compound 0.8 µM, partner dose 0.02 µM)	70.7	84.4	169	140	88.3	145	42.5	74.4	34.2	201
CC(=O)c1c(C)c2cnc(Nc3ccc(N4CCNCC4)cn3)nc2n(C2CCCC2)c1=O [palbociclib] + Cc1cc(SCc2sc(-c3ccc(C(F)(F)F)c(F)c3)nc2C)ccc1OCC(=O)O [GW0742] (first compound 0.04 µM, partner dose 2 µM)	104	86.2	44.4	95.2	133	112	138	95.3	94.7	84.9
C[C@@H](N)c1ccc(C(=O)Nc2ccnc3[nH]ccc23)cc1 + C/C(O)=C(\C#N)C(=O)Nc1cc(Br)ccc1Br [LFM-A13] (first compound 0.4 µM, partner dose 2 µM)	138	90.6	181	85.2	85.3	92.8	41.4	202	54.5	86.6
CS(=O)(=O)CCNCc1ccc(-c2ccc3ncnc(Nc4ccc(OCc5cccc(F)c5)c(Cl)c4)c3c2)o1 [lapatinib] + C/C(O)=C(\C#N)C(=O)Nc1cc(Br)ccc1Br [LFM-A13] (first compound 0.8 µM, partner dose 2 µM)	127	171	238	147	134	152	12.9	89.4	126	115
Cn1cc(C2=C(c3cn(C4CCN(Cc5ccccn5)CC4)c4ccccc34)C(=O)NC2=O)c2ccccc21 [Enzastaurin] + CC1(C)NC(=O)N(c2ccc([N+](=O)[O-])c(C(F)(F)F)c2)C1=O [nilutamide] (first compound 0.8 µM, partner dose 1 µM)	48.5	55.7	114	49.5	111	194	65.1	81.3	192	96.8
N.N.[Cl][Pt][Cl] [cisplatin] + CC1(C)NC(=O)N(c2ccc([N+](=O)[O-])c(C(F)(F)F)c2)C1=O [nilutamide] (first compound 1.6 µM, partner dose 1 µM)	116	151	256	118	40	74.2	70.2	63.9	31	25.9
N.N.[Cl][Pt][Cl] [cisplatin] + Cc1ccc(NC(=O)c2cccc(N(C)C)c2)cc1NC(=O)c1ccc(O)cc1 [ZM336372] (first compound 1.6 µM, partner dose 2 µM)	122	65	81.8	44.8	55.4	29.4	79.8	133	94.6	137
N.N.[Cl][Pt][Cl] [cisplatin] + COc1cc2ncnc(Nc3ccc(Oc4ccccc4)cc3)c2cc1OC [SrcI1] (first compound 1.6 µM, partner dose 2 µM)	73	208	309	69.9	120	127	55	145	76.2	92.5
Cn1cc(C2=C(c3cn(C4CCN(Cc5ccccn5)CC4)c4ccccc34)C(=O)NC2=O)c2ccccc21 [Enzastaurin] + Oc1nc(-c2ccc(C(F)(F)F)cc2)nc2c1CSCC2 [XAV939] (first compound 0.8 µM, partner dose 2 µM)	179	62.4	151	62.2	155	129	295	86.4	90.6	87.8
Cc1cn(-c2cc(NC(=O)c3ccc(C)c(Nc4nccc(-c5cccnc5)n4)c3)cc(C(F)(F)F)c2)cn1 [nilotinib] + Cc1cc(SCc2sc(-c3ccc(C(F)(F)F)c(F)c3)nc2C)ccc1OCC(=O)O [GW0742] (first compound 0.2 µM, partner dose 2 µM)	131	63.1	79.4	89.4	86.6	81.4	377	68.6	96	67.5
Cn1cc(C2=C(c3cn(C4CCN(Cc5ccccn5)CC4)c4ccccc34)C(=O)NC2=O)c2ccccc21 [Enzastaurin] + Cc1ccc(NC(=O)c2cccc(N(C)C)c2)cc1NC(=O)c1ccc(O)cc1 [ZM336372] (first compound 0.8 µM, partner dose 2 µM)	69.7	108	49.3	101	61.1	86.4	144	221	69.3	255

An excerpt of these results, with bars between the fields:
SMILES | cleaved PARP positive nuclei fraction [1] [%] | cleaved PARP positive nuclei fraction [2] [%] | cleaved PARP positive nuclei fraction [3] [%] | cleaved PARP positive nuclei fraction [4] [%] | cleaved PARP positive nuclei fraction [5] [%] | cleaved PARP positive nuclei fraction [6] [%] | cleaved PARP positive nuclei fraction [7] [%] | cleaved PARP positive nuclei fraction [8] [%] | cleaved PARP positive nuclei fraction [9] [%] | cleaved PARP positive nuclei fraction [10] [%]
N.N.[Cl][Pt][Cl] [cisplatin] + Cc1ccc(NC(=O)c2cccc(N(C)C)c2)cc1NC(=O)c1ccc(O)cc1 [ZM336372] (first compound 1.6 µM, partner dose 2 µM) | 122 | 65 | 81.8 | 44.8 | 55.4 | 29.4 | 79.8 | 133 | 94.6 | 137
N.N.[Cl][Pt][Cl] [cisplatin] + COc1cc2ncnc(Nc3ccc(Oc4ccccc4)cc3)c2cc1OC [SrcI1] (first compound 1.6 µM, partner dose 2 µM) | 73 | 208 | 309 | 69.9 | 120 | 127 | 55 | 145 | 76.2 | 92.5
